In PubChem BioAssay AID2417 (National Center for Advancing Translational Sciences (NCATS), 2010):
Among all 140,000 compounds or so, about 4,300 (3.1%) were called active. Inconclusive results, whose numbers are uncertain, are shown with a selection of clear calls.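 How the source made its calls: active means readout at or below -70, meaning at least 70% loss of cells showing the perinucleolar compartment, a nuclear body marking cancer cells; inconclusive means readout between -30 and a set limit; inactive means the rest.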

Assay: High Content Assay for Compounds that inhibit the Assembly of the Perinucleolar Compartment;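 further: plate controls were DMSO wells for no effect and camptothecin positive control wells for full effect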
Conditions: PC3M PTB-GFP, PNC prevalence imaging, 16 h; at 10 µM; stronger effect = lower value
Procedure, shortened: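 Compounds are pinned in duplicate onto adhered PC3M cells stably expressing GFP-tagged PTB and incubated 16 h at 37 C. Cells are then fixed, nuclei stained with Hoechst, and PNC-positive cells counted.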

Row | Compound | activity change (PNC), negative = inhibition
1 | CC(C)COc1ccc(/C(O)=C2/C(=O)C(=O)N(CCN(C)C)C2c2ccncc2)cc1 (stereo not given) | inconclusive: -37.5%
2 | Cc1cc(C)n(-c2ccc(C(=O)OCC(=O)NC(c3ccccc3)c3ccccc3)cc2)n1 | inconclusive: -48.4%
3 | CCOP(=O)(O)c1ccccc1OCCOCCOc1ccccc1P(=O)(O)OCC | inconclusive: -36.4%
4 | O=S(=O)(NCC1CCCO1)c1ccc(S(=O)(=O)N(Cc2ccc(F)cc2)Cc2ccco2)cc1 (stereo not given) | inconclusive: -50.5%
5 | COc1ccccc1/C=C/C1(C(=O)NC2CCCC2)CC(=O)N1c1ccc(C)cc1 (stereo not given) | inconclusive: -47.8%
6 | O=C(COc1ccc(/C=N/NC(=O)c2cc3ccccc3o2)cc1Cl)Nc1ccccc1 | active: -119%
7 | COc1ccc(CNC(=O)CSc2nnc(-c3ccc(NC(C)=O)cc3)n2C)cc1 | inconclusive: -37.1%
8 | COc1ccc(OCCCC(=O)Nc2cccc([N+](=O)[O-])c2)cc1 | inconclusive: -42.9%
9 | O=C(N/N=C\c1ccc(F)cc1)c1ccc(Cn2cc(Br)c([N+](=O)[O-])n2)o1 | inconclusive: -31.5%
10 | CCOC(=O)c1c(-c2ccccc2)[nH]c2ccc(O)cc12 | inconclusive: -63.7%
11 | Nc1nc(-c2ccc(Cl)cc2)cn1N | inconclusive: -41.2%
12 | CC(C)C/C(O)=C/c1nc2cc(Cl)ccc2oc1=O | inconclusive: -36.7%
13 | CSc1nc2ccccc2n1Cc1cccc([N+](=O)[O-])c1 | inconclusive: -46.3%
14 | CC1CCCC(C)N1C(=O)C1CC(c2ccc(F)cc2)=NO1 (stereo not given) | inconclusive: -51%
15 | COc1ccc(C)cc1NC(=O)c1ccccc1NS(=O)(=O)c1cccc2cccnc12 | inactive: -0.582%
16 | CCOC(=O)C1CCN(C(=O)c2cn(-c3ccccc3)nc2-c2cccnc2)CC1 | inconclusive: -44.2%
17 | CCCOc1ccc(N2C(=O)CC(N(C(=O)c3ccco3)c3ccc(OCCC)cc3)C2=O)cc1 (stereo not given) | inactive: 33.4%
18 | O=C1NC(c2ccc(-c3ccccc3[N+](=O)[O-])o2)C(C(=O)c2ccc(F)cc2)C(O)(C(F)(F)F)N1 (stereo not given) | inactive: -22.2%
19 | CCCC(=O)Nc1ccc(-c2cnc(-c3ccc(NC(=O)CCC)cc3)nc2)cc1 | inactive: 31.8%
20 | CCC(=O)N1CCc2cc(Br)cc(S(=O)(=O)NCc3ccco3)c21 | inconclusive: -34.2%
21 | COc1cc(C)ccc1OCCOc1c(Cl)cc(Cl)cc1Cl | inconclusive: -30.6%
22 | O=c1oc2cc(O)ccc2c2c1CCCC2 | inconclusive: -70.7%
23 | O=C(CCNS(=O)(=O)c1cccc2nonc12)N1CCN(c2cccc(Cl)c2)CC1 | inconclusive: -31.2%
24 | CC1CCCC(=C\c2ccccc2)/C1=N/O (stereo not given) | inactive: 2%
25 | Cn1cc([N+](=O)[O-])c(C(=O)Nc2nc(-c3ccc(Cl)cc3)cs2)n1 | inconclusive: -73.8%
26 | CCCOc1ccc(N2C(=O)CC(N(Cc3ccc(OC)cc3)C(=S)Nc3ccccc3)C2=O)cc1 (stereo not given) | inactive: -14.4%
27 | COc1cccc(C2C(C#N)=C(N)Oc3cc(C)[nH]c(=O)c32)c1OC (stereo not given) | inconclusive: -38.6%
28 | CCCCC(=O)NC1(C(F)(F)F)C(=O)N(Cc2ccco2)C(C)=C1C(=O)OC (stereo not given) | inconclusive: -31.8%

Row | Compound | activity change (PNC), negative = inhibition
29 | CCc1c(C#N)c(SCCC(=O)Nc2ccc(OC)cc2)nc2c1C(=O)CC(C)(C)C2 | inconclusive: -47.9%
30 | O=C(Nc1ccc(S(=O)(=O)Nc2nccs2)cc1)c1ccc(S(=O)(=O)N2CCOCC2)cc1 | inconclusive: -37.6%
31 | O=C(CSc1ccc(Cl)cc1)NCC1CCCO1 (stereo not given) | inactive: 24.1%
32 | Cc1ccc(NC(=O)c2ccc(N/N=C/c3cccc(O)c3)c([N+](=O)[O-])c2)cc1 | inactive: 91.1%
33 | O=C(O)CCCC(=O)NCc1ccccn1 | inconclusive: -58.6%
34 | CCOC(=O)CSc1nnc(-c2ccccc2NC(=O)c2ccccc2)o1 | inconclusive: -48.3%
35 | O=C(C1=C(O)C(=O)N(c2ncccn2)C1c1ccc(Cl)c(Cl)c1)c1ccco1 (stereo not given) | inconclusive: -39.5%
36 | COc1ccc2oc(=O)c(C(=O)Nc3ccccc3-c3ccccc3)cc2c1 | inconclusive: -53.8%
37 | CSc1ccc(/C=N\NC(=O)CNc2ccc(C)cc2)cc1 | inconclusive: -67.6%
38 | CCOc1cccc(C2C(C(=O)c3ccco3)=C(O)C(=O)N2Cc2ccncc2)c1 (stereo not given) | inactive: -29.1%
39 | CC(C)C1N(c2ccccc2)C(N)=C(C#N)C1(C#N)C#N (stereo not given) | inconclusive: -55.9%
40 | CC1CC(C)CN(CCCNC(=O)c2csc3c2CCCC3)C1 (stereo not given) | inconclusive: -64.1%
41 | CCCC(C)NC(=O)c1ccc(OCc2ccc(Cl)cc2)c(OC)c1 (stereo not given) | inactive: -9.38%
42 | COc1cccc(NS(=O)(=O)c2ccc3[nH]cc(C(=O)NCCCOC(C)C)c(=O)c3c2)c1 | inconclusive: -34.9%
43 | CCOC(=O)CSc1nnc(CNC(=O)c2ccc(OC)cc2OC)n1-c1ccc(OC)cc1 | inconclusive: -48.4%
44 | O=C(Nc1cccc(C2OCCCO2)c1)c1cccs1 | inactive: 53%
45 | COc1cc([N+](=O)[O-])cc(/C=N/NC(=O)C(C)Nc2cccc3ccccc23)c1O (stereo not given) | inconclusive: -45.9%
46 | O=C(Nc1ccc2nsnc2c1)N1CCCCCC1 | inconclusive: -55.8%
47 | O=S(=O)(NCc1ccco1)c1cnc(Cl)c(Br)c1 | inactive: -3.37%
48 | CCN(CC)C(=O)c1ccc(COc2ccccc2Br)o1 | inactive: 35.1%
49 | C=CCn1c(SCC(=O)Nc2sc3c(c2C#N)CCC3)nnc1C1COc2ccccc2O1 (stereo not given) | inconclusive: -75.2%
50 | CCN(Cc1ccccc1)C(c1ccc(C)cc1)c1nnnn1C(C)(C)C (stereo not given) | inconclusive: -47.1%
51 | CCc1ccccc1OCCCCN1CCCC1 | inconclusive: -41.1%
52 | O=C(CSc1ccc(Cl)cc1)Nn1cnnc1 | inactive: -11.5%
53 | COCCn1c(C)cc(C(=O)CSc2ncnc3sc4c(c23)CCC4)c1C | active: -100%
54 | CCN(CC)S(=O)(=O)c1ccc(C(=O)N2CCCCC2)cc1 | inactive: 26.2%
55 | CCOC(=O)C1(CCSC)NC(c2ccco2)C2C(=O)N(CC)C(=O)C21 (stereo not given) | inconclusive: -67.2%

Exported as comma-separated lines: part of the list above
Row,Compound,"activity change (PNC), negative = inhibition"
6,O=C(COc1ccc(/C=N/NC(=O)c2cc3ccccc3o2)cc1Cl)Nc1ccccc1,active: -119%
7,COc1ccc(CNC(=O)CSc2nnc(-c3ccc(NC(C)=O)cc3)n2C)cc1,inconclusive: -37.1%
8,COc1ccc(OCCCC(=O)Nc2cccc([N+](=O)[O-])c2)cc1,inconclusive: -42.9%
